Test results published in paper PMC3921129.
Numbering of substitutions follows the chain as printed. Names and notes keep the numbering of the source. Results are given in words; binding and its absence hold for the method and conditions named. Binding seen in cells or lysates may run through a third protein. Some entries that bind do so weakly or less than the wild type. Tags and fused reporters may be left off the sequences shown. Values belong to the molecule of their own block, whether it stands above or below them.

Experiments:
[1] = molecular target: T1, GFP-Dok1 (human) (UniProt Q99704); assay: co-IP; HEK 293 cells co-transfected with GFP-Dok1 and BRK variants; lysate (20 mM Tris pH 7.5, 1% triton, 150 mM NaCl, 0.3 mM orthovanadate) immunoprecipitated with anti-Dok1, Protein A beads, 4°C; blotted with anti-BRK
T1 sequence: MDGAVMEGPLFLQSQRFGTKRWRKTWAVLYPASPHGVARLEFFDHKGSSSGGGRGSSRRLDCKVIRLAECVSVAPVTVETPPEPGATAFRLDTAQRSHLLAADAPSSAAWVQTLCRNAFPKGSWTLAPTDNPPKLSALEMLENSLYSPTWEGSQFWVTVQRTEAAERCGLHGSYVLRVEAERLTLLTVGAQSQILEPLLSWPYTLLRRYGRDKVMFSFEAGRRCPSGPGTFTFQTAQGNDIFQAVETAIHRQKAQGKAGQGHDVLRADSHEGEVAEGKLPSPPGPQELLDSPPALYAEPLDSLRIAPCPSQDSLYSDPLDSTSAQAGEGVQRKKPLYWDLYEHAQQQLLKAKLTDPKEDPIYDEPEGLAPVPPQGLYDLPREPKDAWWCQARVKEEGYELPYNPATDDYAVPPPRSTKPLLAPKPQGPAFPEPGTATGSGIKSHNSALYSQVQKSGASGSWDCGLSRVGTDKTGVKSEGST

[2] = molecular target: Myc-BRK-YF (human) (UniProt Q13882); assay: co-IP; reciprocal: HEK 293 cells co-transfected with GFP-Dok1 and BRK-WT or BRK-YF; lysate immunoprecipitated with anti-BRK, Protein A beads, 4°C; blotted with anti-Dok1
[3] = molecular target: Myc-BRK-WT (human) (UniProt Q13882); assay: as above
[4] = molecular target: GST-BRK-SH3 (human) (UniProt Q13882); assay: pull-down; GST-BRK-SH3 or GST-BRK-SH2 immobilized on glutathione Sepharose beads, incubated with lysates of HEK 293 cells transfected with GFP-Dok1 WT or Y362F alone or cotransfected with BRK-Y447F; blotted with anti-Dok1; only the target purified

B1: GFP-Dok1 (protein, UniProt Q99704 1-481)
chain: T1 sequence
- binding [2]: binds
- binding [3]: binds
- binding [4]: binds

B2: GFP-Dok1 WT from cells cotransfected with BRK-Y447F (tyrosine-phosphorylated Dok1) (protein, UniProt Q99704 1-481)
chain: T1 sequence
modifications: tyrosine-phosphorylated by co-expressed BRK-Y447F, predominantly on Y362
- binding [4]: binds

B3: GFP-Dok1-Y362F (protein, UniProt Q99704 1-481)
chain: T1 sequence with Y362F
- binding [4]: binds

More lines, now with the values ahead:

- binding [1]: binds
Molecule: Myc-BRK-WT (from UniProt Q13882 1-451) (enzyme)

- binding [1]: binds
Molecule: Myc-BRK-YF (from UniProt Q13882 1-451) (enzyme)

- binding [1]: binds
Molecule: BRK-Y342A (from UniProt Q13882 1-451) (enzyme)
